Measured values as given in PubChem BioAssay AID588497 (NMMLSC, 2011).
Hit rate of the full screen: of about 360,000 compounds, about 780 (0.22%) were called active. The shares of active, inactive and inconclusive entries below differ from those in the screen. Cut-off read from the data, not from the text of the source: active = inhibition above about 35% (passing the limit was not always enough); inconclusive = no clear call, values can overlap the other calls.

Each compound was assayed on Botulinum neurotoxin type F light chain protease (Clostridium botulinum) (assay: BoNT/F light chain protease inhibitors, primary screen, biochemical, flow cytometry, MLPCN library (AID 588497; note: plate controls were buffer without enzyme for full effect and enzyme alone for no effect)). Settings: Multiplex microsphere protease cleavage assay, at 10 µM, hits give high values.

Row | SMILES | inhibition
1 | Brc1ccc2[nH]c3c(c2c1)CCC3 | inconclusive: -49.8%
2 | Cc1csc(NC(=O)CCC(=O)N(CC(=O)NC2CCCCC2)c2ccccc2)n1 | inactive: -16%
3 | O=C(Cc1c(F)cccc1Cl)NCc1cccnc1 | inconclusive: 5.9%
4 | CC1(NC(=O)Nc2cccc3ccccc23)CCS(=O)(=O)C1 (configuration not stated) | inactive: 1%
5 | CCN(Cc1cccc(OC)c1)CC1CCCN(CCc2cccc(OC)c2)C1 (configuration not stated) | inconclusive: 9.1%
6 | Cc1cc2nc(-c3cccnc3SCC(=O)NCc3ccco3)[nH]c2cc1C | inactive: 2.5%
7 | CC(C)(C)OC(=O)NCCC(=O)N/N=C/c1cccc2nccnc12 | inconclusive: -117%
8 | O=S(=O)(Nc1ccc2c(c1)OCO2)c1ccccc1 | inactive: -7.7%
9 | Cc1ccccc1C(=O)N1CCN(c2ncccn2)CC1 | inconclusive: 41.6%
10 | CSc1ccc(C(=O)C2CCCN(C)C2)cc1 (configuration not stated) | inactive: -3%
11 | NNc1n[nH]c(=S)n1N | inconclusive: -27.7%
12 | CCOC(=O)CCNC(=O)N1CCC(CCOc2ccccc2)(C(=O)OCC)CC1 | inconclusive: 17.6%
13 | O=C(COc1ccccc1F)NNC(=O)Cc1ccc(S(=O)(=O)N2CCOCC2)s1 | inconclusive: -7.6%
14 | O=C(CSc1nnc(-c2ccco2)n1CC1CCCO1)c1ccccc1 (configuration not stated) | inconclusive: 36.8%
15 | Cc1ccc(C(=O)NNC(=O)CCCCC(=O)NNC(=O)c2ccc(C)cc2)cc1 | inconclusive: -2.2%
16 | Cc1cc(=O)[nH]c(Nc2cccc(F)c2)n1 | inconclusive: -12.6%
17 | CC(=O)Nc1cccc(NC(=O)CCCC(=O)O)c1 | inactive: 2.8%
18 | CCOCCn1c(-c2ccccc2)nc2ccccc21 | active: 65.4%
19 | CC(=O)Nc1sc2c(c1C(N)=O)CCC2 | inconclusive: 3.2%
20 | CCN(CC)c1ccc(C(=O)NC(=S)N2CCN(Cc3ccc4c(c3)OCO4)CC2)cc1 | active: 51.4%
21 | O=C(Cc1ccc(Cl)cc1)N1CCOCC1 | inconclusive: 28.3%
22 | NC(=O)c1cn(C2CCCCC2)c2ccccc2c1=O | active: 40.7%
23 | CC(C)OCCCn1c(=NC(=O)c2cccs2)c(C#N)cc2c(=O)n3ccccc3nc21 | inconclusive: -27.1%
24 | Cc1ccc(S(=O)(=O)N2CCCCC2)cc1C(=O)NCCC1=CCCCC1 | inconclusive: 4.8%
25 | Cc1ccc(COc2ccccc2-c2cc(C(=O)N/N=C/c3cccnc3)[nH]n2)cc1 | inconclusive: 64.2%
26 | N#Cc1nc(-c2ccc(F)cc2)oc1NCc1ccccc1 | inactive: 1.4%
27 | COc1cccc(C(=O)CC(=O)C(=O)Nc2ccc(C)cc2Cl)c1 | inconclusive: -18%

Sorted by length of the SMILES (largest number first): 8 of the compounds above.
Row | SMILES | inhibition
20 | CCN(CC)c1ccc(C(=O)NC(=S)N2CCN(Cc3ccc4c(c3)OCO4)CC2)cc1 | active: 51.4%
5 | CCN(Cc1cccc(OC)c1)CC1CCCN(CCc2cccc(OC)c2)C1 (configuration not stated) | inconclusive: 9.1%
27 | COc1cccc(C(=O)CC(=O)C(=O)Nc2ccc(C)cc2Cl)c1 | inconclusive: -18%
14 | O=C(CSc1nnc(-c2ccco2)n1CC1CCCO1)c1ccccc1 (configuration not stated) | inconclusive: 36.8%
26 | N#Cc1nc(-c2ccc(F)cc2)oc1NCc1ccccc1 | inactive: 1.4%
9 | Cc1ccccc1C(=O)N1CCN(c2ncccn2)CC1 | inconclusive: 41.6%
16 | Cc1cc(=O)[nH]c(Nc2cccc(F)c2)n1 | inconclusive: -12.6%
3 | O=C(Cc1c(F)cccc1Cl)NCc1cccnc1 | inconclusive: 5.9%
